{"source": "PubChem BioAssay AID686943 (Drosophila RNAi Screening Center, 2013)", "aim": "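Knockdowns that increase or decrease active ERK after insulin receptor stimulation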 (primary screen)", "cells": "Drosophila S2R+ haemocyte-like cells expressing YFP-tagged ERK (Rolled)", "reagent": "long dsRNA against Drosophila genes", "challenge": "insulin stimulation versus unstimulated cells; dose and duration not given", "read-out": "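Per-plate z-scores of phospho-ERK immunostaining normalised to YFP-tagged ERK, measured with and without insulin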", "direction": "replicate 1, z-score of dpERK with insulin and replicate 2, z-score of dpERK with insulin: higher = more active ERK per ERK-YFP after insulin", "note": "The screen tested about 23,000 reagents; this is an unselected part of those that have a named target and a result. 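Extra replicates exist only for a retested subset of genes; insulin dose and duration not given; both raised and lowered dpERK matter.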 Reagents against one gene are numbered here. Names joined by + are all predicted targets of the reagent. Further read-outs or replicates are left out here. No sequences are given here. The record does not give: the amount of reagent, the time to read-out."}
{"gene": "Tak1 (GeneID 39659)", "reagent": 1, "replicate 1, z-score of dpERK with insulin": -2.31, "replicate 2, z-score of dpERK with insulin": -2.34}
{"gene": "Tak1 (GeneID 39659)", "reagent": 2, "replicate 1, z-score of dpERK with insulin": -1.43, "replicate 2, z-score of dpERK with insulin": -0.75}
{"gene": "Tak1 (GeneID 39659)", "reagent": 3, "replicate 1, z-score of dpERK with insulin": 1.61, "replicate 2, z-score of dpERK with insulin": 0.9}
{"gene": "Amacr (GeneID 35337)", "reagent": 1, "replicate 1, z-score of dpERK with insulin": -0.24, "replicate 2, z-score of dpERK with insulin": 1.06}
{"gene": "tth (GeneID 32318)", "reagent": 1, "replicate 1, z-score of dpERK with insulin": -1.13, "replicate 2, z-score of dpERK with insulin": 0.61}
{"gene": "CG4853 (GeneID 36974)", "reagent": 1, "replicate 1, z-score of dpERK with insulin": 0.49, "replicate 2, z-score of dpERK with insulin": 0.71}
{"gene": "Pfdn6 (GeneID 40176)", "reagent": 1, "replicate 1, z-score of dpERK with insulin": -0.13, "replicate 2, z-score of dpERK with insulin": 1.4}
{"gene": "Snr1 (GeneID 40657)", "reagent": 1, "replicate 1, z-score of dpERK with insulin": 1.96, "replicate 2, z-score of dpERK with insulin": -0.24}
{"gene": "shg (GeneID 37386)", "reagent": 1, "replicate 1, z-score of dpERK with insulin": 0.36, "replicate 2, z-score of dpERK with insulin": 0.14}
{"gene": "CG8534 (GeneID 41210)", "reagent": 1, "replicate 1, z-score of dpERK with insulin": 1.08, "replicate 2, z-score of dpERK with insulin": 0.91}
{"gene": "yellow-f2 (GeneID 41596)", "reagent": 1, "replicate 1, z-score of dpERK with insulin": 0.93, "replicate 2, z-score of dpERK with insulin": 0.5}
{"gene": "Pur-alpha (GeneID 43797)", "reagent": 1, "replicate 1, z-score of dpERK with insulin": 0.34, "replicate 2, z-score of dpERK with insulin": 0.41}
{"gene": "CG2006 (GeneID 43472)", "reagent": 1, "replicate 1, z-score of dpERK with insulin": -0.05, "replicate 2, z-score of dpERK with insulin": 0.27}
{"gene": "CG18327 (GeneID 36567)", "reagent": 1, "replicate 1, z-score of dpERK with insulin": -0.37, "replicate 2, z-score of dpERK with insulin": 0.09}
{"gene": "Octbeta3R (GeneID 3885573)", "reagent": 1, "replicate 1, z-score of dpERK with insulin": -0.18, "replicate 2, z-score of dpERK with insulin": -0.77}
{"gene": "Octbeta3R (GeneID 3885573)", "reagent": 2, "replicate 1, z-score of dpERK with insulin": 0.83, "replicate 2, z-score of dpERK with insulin": 1.17}
{"gene": "Octbeta3R (GeneID 3885573)", "reagent": 3, "replicate 1, z-score of dpERK with insulin": 0.41, "replicate 2, z-score of dpERK with insulin": 0.86}
{"gene": "Octbeta3R (GeneID 3885573)", "reagent": 4, "replicate 1, z-score of dpERK with insulin": 0.34, "replicate 2, z-score of dpERK with insulin": -0.15}
{"gene": "Octbeta3R (GeneID 3885573)", "reagent": 5, "replicate 1, z-score of dpERK with insulin": -0.24, "replicate 2, z-score of dpERK with insulin": -0.23}
{"gene": "Hsc70-1 (GeneID 39542)", "reagent": 1, "replicate 1, z-score of dpERK with insulin": 0.89, "replicate 2, z-score of dpERK with insulin": -1.05}
{"gene": "CG7220 (GeneID 36129)", "reagent": 1, "replicate 1, z-score of dpERK with insulin": -0.12, "replicate 2, z-score of dpERK with insulin": 0.64}
{"gene": "CG7220 (GeneID 36129)", "reagent": 2, "replicate 1, z-score of dpERK with insulin": -0.19, "replicate 2, z-score of dpERK with insulin": -0.54}
{"gene": "BBS8 (GeneID 33217)", "reagent": 1, "replicate 1, z-score of dpERK with insulin": 0.72, "replicate 2, z-score of dpERK with insulin": -0.1}
{"gene": "MetRS-m (GeneID 41733)", "reagent": 1, "replicate 1, z-score of dpERK with insulin": -0.78, "replicate 2, z-score of dpERK with insulin": -0.38}
{"gene": "MetRS-m (GeneID 41733)", "reagent": 2, "replicate 1, z-score of dpERK with insulin": 0.19, "replicate 2, z-score of dpERK with insulin": -0.99}
{"gene": "CG30423 (GeneID 246605)", "reagent": 1, "replicate 1, z-score of dpERK with insulin": -0.19, "replicate 2, z-score of dpERK with insulin": -0.37}
{"gene": "CG2291 (GeneID 35804)", "reagent": 1, "replicate 1, z-score of dpERK with insulin": -0.13, "replicate 2, z-score of dpERK with insulin": 0.38}
{"gene": "CG18268 + CG3014", "reagent": 1, "replicate 1, z-score of dpERK with insulin": -0.87, "replicate 2, z-score of dpERK with insulin": -0.29}
{"gene": "ec (GeneID 31339)", "reagent": 1, "replicate 1, z-score of dpERK with insulin": 0.38, "replicate 2, z-score of dpERK with insulin": 0.33}
{"gene": "ec (GeneID 31339)", "reagent": 2, "replicate 1, z-score of dpERK with insulin": -0.02, "replicate 2, z-score of dpERK with insulin": -0.09}
{"gene": "ec (GeneID 31339)", "reagent": 3, "replicate 1, z-score of dpERK with insulin": 0, "replicate 2, z-score of dpERK with insulin": 1.12}

In a second layout: results already given.
CG18268 + CG3014: replicate 1, z-score of dpERK with insulin = -0.87; replicate 2, z-score of dpERK with insulin = -0.29
ec (GeneID 31339) #1: replicate 1, z-score of dpERK with insulin = 0.38; replicate 2, z-score of dpERK with insulin = 0.33
ec (GeneID 31339) #2: replicate 1, z-score of dpERK with insulin = -0.02; replicate 2, z-score of dpERK with insulin = -0.09
ec (GeneID 31339) #3: replicate 1, z-score of dpERK with insulin = 0; replicate 2, z-score of dpERK with insulin = 1.12
